{"sequences": {"note": "Protein sequences, listed by entry. Tags and fused reporters are not part of them. Lines headed by an entry give the natural chain unless they say otherwise; changes in a name come on top.", "UniProt A6H8Y1": "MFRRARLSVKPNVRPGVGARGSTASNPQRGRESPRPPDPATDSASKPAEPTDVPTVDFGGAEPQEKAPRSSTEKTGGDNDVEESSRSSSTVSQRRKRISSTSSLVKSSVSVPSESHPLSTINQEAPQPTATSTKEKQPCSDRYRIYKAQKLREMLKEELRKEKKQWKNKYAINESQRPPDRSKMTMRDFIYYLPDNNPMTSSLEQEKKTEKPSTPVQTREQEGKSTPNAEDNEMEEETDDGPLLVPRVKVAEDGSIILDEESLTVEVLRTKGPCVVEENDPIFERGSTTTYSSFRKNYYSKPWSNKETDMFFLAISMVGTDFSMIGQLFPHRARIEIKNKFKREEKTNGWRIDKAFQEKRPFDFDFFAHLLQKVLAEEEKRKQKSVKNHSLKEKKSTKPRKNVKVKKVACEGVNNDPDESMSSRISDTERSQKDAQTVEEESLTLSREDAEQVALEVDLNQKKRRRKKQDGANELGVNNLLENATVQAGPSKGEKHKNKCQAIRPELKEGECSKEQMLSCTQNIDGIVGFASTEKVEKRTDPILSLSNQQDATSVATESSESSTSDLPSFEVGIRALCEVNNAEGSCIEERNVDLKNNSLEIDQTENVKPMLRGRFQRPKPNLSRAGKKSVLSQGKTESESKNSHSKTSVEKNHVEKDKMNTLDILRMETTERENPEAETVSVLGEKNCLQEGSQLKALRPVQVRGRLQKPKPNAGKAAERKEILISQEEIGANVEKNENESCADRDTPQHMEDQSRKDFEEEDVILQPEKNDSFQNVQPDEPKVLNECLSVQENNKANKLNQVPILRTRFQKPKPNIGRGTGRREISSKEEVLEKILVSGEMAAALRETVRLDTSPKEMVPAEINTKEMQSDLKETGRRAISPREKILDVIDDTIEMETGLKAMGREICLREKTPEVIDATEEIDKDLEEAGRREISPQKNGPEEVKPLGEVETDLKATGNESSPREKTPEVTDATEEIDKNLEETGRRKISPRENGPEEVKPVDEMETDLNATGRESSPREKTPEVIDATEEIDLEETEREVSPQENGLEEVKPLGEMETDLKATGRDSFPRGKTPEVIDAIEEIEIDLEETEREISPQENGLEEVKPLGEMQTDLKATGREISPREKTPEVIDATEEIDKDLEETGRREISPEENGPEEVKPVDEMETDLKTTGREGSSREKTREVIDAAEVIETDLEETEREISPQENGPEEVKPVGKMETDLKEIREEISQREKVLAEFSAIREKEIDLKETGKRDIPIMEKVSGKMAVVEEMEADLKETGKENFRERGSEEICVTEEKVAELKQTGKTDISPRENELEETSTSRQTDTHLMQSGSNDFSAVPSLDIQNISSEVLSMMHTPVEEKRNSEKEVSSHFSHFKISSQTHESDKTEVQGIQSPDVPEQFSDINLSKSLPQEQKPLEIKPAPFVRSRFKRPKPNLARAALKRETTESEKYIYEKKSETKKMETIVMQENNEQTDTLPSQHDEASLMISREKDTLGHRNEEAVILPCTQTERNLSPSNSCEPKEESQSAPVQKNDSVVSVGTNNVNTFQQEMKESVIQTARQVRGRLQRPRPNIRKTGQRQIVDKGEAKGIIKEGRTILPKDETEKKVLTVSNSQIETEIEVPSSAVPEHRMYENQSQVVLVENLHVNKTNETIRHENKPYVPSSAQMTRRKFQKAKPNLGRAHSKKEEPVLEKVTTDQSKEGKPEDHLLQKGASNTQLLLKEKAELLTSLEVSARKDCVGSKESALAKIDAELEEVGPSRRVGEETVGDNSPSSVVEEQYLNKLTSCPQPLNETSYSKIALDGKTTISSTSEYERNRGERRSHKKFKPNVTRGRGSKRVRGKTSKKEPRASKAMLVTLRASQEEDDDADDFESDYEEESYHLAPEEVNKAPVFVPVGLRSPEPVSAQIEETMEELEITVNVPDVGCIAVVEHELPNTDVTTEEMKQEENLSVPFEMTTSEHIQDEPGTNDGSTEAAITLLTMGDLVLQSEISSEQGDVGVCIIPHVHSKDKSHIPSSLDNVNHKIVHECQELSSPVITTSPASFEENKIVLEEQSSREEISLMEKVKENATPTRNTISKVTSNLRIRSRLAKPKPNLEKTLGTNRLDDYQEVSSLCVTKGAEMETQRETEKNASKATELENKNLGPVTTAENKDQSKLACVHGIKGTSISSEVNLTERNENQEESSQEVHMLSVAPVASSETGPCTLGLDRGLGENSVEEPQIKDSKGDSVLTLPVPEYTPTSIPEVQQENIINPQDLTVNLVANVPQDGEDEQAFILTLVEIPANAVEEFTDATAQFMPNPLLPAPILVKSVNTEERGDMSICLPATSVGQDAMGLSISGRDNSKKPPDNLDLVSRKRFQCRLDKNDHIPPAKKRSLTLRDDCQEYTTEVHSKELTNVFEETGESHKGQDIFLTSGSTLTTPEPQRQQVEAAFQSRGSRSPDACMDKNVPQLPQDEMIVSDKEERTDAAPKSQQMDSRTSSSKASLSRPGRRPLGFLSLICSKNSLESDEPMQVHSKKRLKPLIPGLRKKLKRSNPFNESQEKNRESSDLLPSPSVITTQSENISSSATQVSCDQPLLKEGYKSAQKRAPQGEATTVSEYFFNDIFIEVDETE", "UniProt Q8N543": "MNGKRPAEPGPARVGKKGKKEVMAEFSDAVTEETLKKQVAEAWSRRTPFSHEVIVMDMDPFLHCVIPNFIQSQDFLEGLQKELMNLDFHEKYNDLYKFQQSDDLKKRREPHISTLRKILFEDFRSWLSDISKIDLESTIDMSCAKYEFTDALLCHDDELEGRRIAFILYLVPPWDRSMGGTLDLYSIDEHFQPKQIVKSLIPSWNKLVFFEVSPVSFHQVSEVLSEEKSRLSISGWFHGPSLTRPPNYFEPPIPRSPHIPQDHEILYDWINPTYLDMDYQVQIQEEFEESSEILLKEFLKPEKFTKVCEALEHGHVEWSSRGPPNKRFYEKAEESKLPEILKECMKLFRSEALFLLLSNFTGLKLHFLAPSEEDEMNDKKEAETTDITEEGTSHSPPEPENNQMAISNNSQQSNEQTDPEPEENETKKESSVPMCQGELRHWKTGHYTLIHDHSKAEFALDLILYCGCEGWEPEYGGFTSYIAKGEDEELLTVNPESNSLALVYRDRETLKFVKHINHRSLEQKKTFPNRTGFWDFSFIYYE", "UniProt Q9UBF8": "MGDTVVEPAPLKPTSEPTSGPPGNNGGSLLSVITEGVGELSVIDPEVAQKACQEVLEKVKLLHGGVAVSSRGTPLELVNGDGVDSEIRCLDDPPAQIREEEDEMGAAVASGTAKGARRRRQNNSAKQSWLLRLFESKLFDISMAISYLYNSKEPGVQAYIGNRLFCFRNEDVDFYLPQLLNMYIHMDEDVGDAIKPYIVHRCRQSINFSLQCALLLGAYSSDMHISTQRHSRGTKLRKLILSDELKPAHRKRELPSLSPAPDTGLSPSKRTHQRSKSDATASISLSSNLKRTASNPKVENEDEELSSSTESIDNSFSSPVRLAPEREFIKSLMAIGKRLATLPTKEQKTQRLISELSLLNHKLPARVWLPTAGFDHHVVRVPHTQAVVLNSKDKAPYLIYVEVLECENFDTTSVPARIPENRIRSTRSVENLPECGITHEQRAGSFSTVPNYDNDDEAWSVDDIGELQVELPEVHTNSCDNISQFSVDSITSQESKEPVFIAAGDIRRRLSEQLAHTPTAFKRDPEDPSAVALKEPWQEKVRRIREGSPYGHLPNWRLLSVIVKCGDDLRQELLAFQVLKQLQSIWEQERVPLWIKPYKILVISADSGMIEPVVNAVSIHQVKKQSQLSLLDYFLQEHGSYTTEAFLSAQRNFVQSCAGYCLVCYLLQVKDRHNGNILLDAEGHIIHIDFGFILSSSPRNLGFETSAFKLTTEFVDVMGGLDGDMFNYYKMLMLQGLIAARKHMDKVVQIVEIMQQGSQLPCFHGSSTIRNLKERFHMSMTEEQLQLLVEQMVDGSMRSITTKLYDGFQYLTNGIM", "UniProt Q14160": "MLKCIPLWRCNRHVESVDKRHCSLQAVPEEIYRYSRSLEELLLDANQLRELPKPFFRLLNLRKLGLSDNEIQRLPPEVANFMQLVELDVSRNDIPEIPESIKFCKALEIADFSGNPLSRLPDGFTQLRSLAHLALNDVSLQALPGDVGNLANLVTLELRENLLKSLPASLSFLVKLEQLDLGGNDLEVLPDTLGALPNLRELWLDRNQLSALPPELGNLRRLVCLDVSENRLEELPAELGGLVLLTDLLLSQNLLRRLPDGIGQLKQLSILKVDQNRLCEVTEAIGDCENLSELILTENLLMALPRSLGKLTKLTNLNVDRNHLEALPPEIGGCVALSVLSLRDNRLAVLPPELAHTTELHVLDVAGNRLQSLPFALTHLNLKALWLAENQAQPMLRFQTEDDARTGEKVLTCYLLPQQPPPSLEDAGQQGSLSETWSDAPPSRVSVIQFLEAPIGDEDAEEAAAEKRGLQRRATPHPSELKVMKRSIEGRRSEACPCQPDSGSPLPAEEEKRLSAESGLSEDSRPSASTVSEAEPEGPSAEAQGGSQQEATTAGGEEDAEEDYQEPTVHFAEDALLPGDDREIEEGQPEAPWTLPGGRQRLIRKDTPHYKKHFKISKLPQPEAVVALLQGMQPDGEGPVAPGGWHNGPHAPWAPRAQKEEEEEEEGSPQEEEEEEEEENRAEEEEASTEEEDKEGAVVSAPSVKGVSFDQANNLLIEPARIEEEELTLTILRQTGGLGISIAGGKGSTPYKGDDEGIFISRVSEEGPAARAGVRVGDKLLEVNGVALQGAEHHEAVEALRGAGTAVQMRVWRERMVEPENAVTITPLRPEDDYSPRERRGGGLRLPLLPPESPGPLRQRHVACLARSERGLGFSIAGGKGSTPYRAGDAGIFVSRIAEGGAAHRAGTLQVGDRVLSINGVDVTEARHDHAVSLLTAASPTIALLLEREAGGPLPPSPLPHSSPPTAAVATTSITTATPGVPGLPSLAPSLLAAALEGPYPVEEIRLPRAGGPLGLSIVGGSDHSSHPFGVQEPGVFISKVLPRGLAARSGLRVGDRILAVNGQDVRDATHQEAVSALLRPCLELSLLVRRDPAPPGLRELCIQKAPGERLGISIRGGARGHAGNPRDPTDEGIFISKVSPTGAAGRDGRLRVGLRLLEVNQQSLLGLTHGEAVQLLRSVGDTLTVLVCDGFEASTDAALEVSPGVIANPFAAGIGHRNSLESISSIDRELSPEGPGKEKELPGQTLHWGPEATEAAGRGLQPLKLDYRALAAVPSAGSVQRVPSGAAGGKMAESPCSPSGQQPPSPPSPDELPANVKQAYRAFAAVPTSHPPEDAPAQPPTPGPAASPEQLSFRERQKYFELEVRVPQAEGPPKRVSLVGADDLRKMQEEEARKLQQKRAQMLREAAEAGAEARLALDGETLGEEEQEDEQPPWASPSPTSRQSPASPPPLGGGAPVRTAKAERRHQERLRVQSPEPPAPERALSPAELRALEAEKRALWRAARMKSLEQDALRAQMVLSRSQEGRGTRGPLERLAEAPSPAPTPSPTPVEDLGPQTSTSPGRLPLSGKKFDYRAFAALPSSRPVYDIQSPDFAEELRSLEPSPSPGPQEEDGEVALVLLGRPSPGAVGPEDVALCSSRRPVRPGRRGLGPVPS", "UniProt Q14978": "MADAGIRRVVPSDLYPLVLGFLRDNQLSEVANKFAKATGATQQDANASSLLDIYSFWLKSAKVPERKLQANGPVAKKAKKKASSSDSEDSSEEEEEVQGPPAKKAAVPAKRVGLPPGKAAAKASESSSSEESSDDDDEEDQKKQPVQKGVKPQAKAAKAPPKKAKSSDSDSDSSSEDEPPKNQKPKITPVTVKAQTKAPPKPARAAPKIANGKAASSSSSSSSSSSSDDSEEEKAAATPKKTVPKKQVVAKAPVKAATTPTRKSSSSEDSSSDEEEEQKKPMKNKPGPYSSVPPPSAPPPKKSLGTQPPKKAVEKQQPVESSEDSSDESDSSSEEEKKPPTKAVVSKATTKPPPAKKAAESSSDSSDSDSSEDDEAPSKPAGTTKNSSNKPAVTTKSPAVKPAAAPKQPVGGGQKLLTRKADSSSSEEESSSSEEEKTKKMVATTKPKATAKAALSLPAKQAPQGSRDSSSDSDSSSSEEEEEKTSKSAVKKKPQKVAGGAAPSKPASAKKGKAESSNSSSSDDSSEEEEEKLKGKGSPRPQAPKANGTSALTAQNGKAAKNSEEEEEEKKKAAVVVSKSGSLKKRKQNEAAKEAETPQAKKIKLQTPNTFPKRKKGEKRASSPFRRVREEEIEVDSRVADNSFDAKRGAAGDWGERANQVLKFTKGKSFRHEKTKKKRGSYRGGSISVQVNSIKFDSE", "UniProt P01850": "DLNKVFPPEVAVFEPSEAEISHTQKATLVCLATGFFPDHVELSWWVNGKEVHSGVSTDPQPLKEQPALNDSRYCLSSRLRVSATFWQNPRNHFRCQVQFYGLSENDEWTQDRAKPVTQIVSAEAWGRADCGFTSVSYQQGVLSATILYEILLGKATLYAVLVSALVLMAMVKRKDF"}, "source": "the supplement of paper PMC6411743", "compound": "Nc1ncnc2c1ncn2[C@@H]1O[C@H](COP(=O)(O)OP(=O)(O)NP(=O)(O)O)[C@@H](O)[C@H]1O [adenylyl imidodiphosphate]", "assay": "NP40-soluble protein abundance relative to vehicle (solubility fold change) (ratio); higher = more soluble protein in presence of AMP-PNP", "summary_of_the_method": "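Across three independent experiments, values are fold changes against the detergent-processed vehicle for each replicate, based on vsn-normalised intensities. The samples were Jurkat crude lysate treated with eight concentrations (0.1 to 10 mM) for 10 min at room temperature and then 3 min at 37 °C. Lysate was solubilised with 0.8% NP40 and benzonase, ultracentrifuged, and the supernatant analysed by TMT-labelled LC-MS/MS.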", "note": "± gives the standard deviation of the averaged measurements. Only a part is listed here, and it is no random draw. Small differences around the control level are noise."}
{"target": "A0A087WY85|P61077 and related entries (UniProt P61077)", "values": [{"measurement": "NP40-soluble protein abundance", "setting": "concentration: 0.1mM", "result": "0.972 ± 0.032"}, {"measurement": "NP40-soluble protein abundance", "setting": "concentration: 0.5mM", "result": "0.968 ± 0.035"}]}
{"target": "A0A0G2JNU3|A6H8Y1 and related entries (UniProt A6H8Y1)", "values": [{"measurement": "NP40-soluble protein abundance", "setting": "concentration: 0.1mM", "result": "1.04 ± 0.11"}, {"measurement": "NP40-soluble protein abundance", "setting": "concentration: 0.5mM", "result": "1.066 ± 0.0061"}]}
{"target": "A0A0A0MTR2|Q8N543 (UniProt Q8N543)", "values": [{"measurement": "NP40-soluble protein abundance", "setting": "concentration: 0.1mM", "result": "1 ± 0.025"}, {"measurement": "NP40-soluble protein abundance", "setting": "concentration: 0.5mM", "result": "0.991 ± 0.016"}]}
{"target": "A0A0B4J1S8|Q9UBF8 and related entries (UniProt Q9UBF8)", "values": [{"measurement": "NP40-soluble protein abundance", "setting": "concentration: 0.1mM", "result": "1.02 ± 0.016"}, {"measurement": "NP40-soluble protein abundance", "setting": "concentration: 0.5mM", "result": "0.9603 ± 0.0078"}]}
{"target": "A0A087WZ62", "values": [{"measurement": "NP40-soluble protein abundance", "setting": "concentration: 0.1mM", "result": "0.965 ± 0.0086"}, {"measurement": "NP40-soluble protein abundance", "setting": "concentration: 0.5mM", "result": "0.939 ± 0.019"}]}
{"target": "A0A0G2JPP5|Q14160-3|A0A0G2JNZ2|Q14160 (UniProt Q14160)", "values": [{"measurement": "NP40-soluble protein abundance", "setting": "concentration: 0.1mM", "result": "0.982 ± 0.023"}, {"measurement": "NP40-soluble protein abundance", "setting": "concentration: 0.5mM", "result": "0.982 ± 0.022"}]}
{"target": "A0A087X020|Q9Y3A5 (UniProt Q9Y3A5)", "values": [{"measurement": "NP40-soluble protein abundance", "setting": "concentration: 0.1mM", "result": "1.02 ± 0.045"}, {"measurement": "NP40-soluble protein abundance", "setting": "concentration: 0.5mM", "result": "0.97 ± 0.031"}]}
{"target": "A0A0A6YYG7|Q6IBW4 and related entries (UniProt Q6IBW4)", "values": [{"measurement": "NP40-soluble protein abundance", "setting": "concentration: 0.1mM", "result": "0.975 ± 0.043"}, {"measurement": "NP40-soluble protein abundance", "setting": "concentration: 0.5mM", "result": "1.01 ± 0.083"}]}
{"target": "A0A0U1RRH6|O94880 (UniProt O94880)", "values": [{"measurement": "NP40-soluble protein abundance", "setting": "concentration: 0.1mM", "result": "0.971 ± 0.03"}, {"measurement": "NP40-soluble protein abundance", "setting": "concentration: 0.5mM", "result": "0.995 ± 0.039"}]}
{"target": "A0A0A0MRM9|Q14978-2|Q14978 and related entries (UniProt Q14978)", "values": [{"measurement": "NP40-soluble protein abundance", "setting": "concentration: 0.1mM", "result": "0.933 ± 0.013"}, {"measurement": "NP40-soluble protein abundance", "setting": "concentration: 0.5mM", "result": "1.06 ± 0.085"}]}
{"target": "A0AVT1", "values": [{"measurement": "NP40-soluble protein abundance", "setting": "concentration: 0.1mM", "result": "0.9855 ± 0.008"}, {"measurement": "NP40-soluble protein abundance", "setting": "concentration: 0.5mM", "result": "0.988 ± 0.04"}]}
{"target": "A0A0A6YYD5|A0A0B4J2E0|A0A5A8 and related entries (UniProt P01733+A0A5A8)", "values": [{"measurement": "NP40-soluble protein abundance", "setting": "concentration: 0.1mM", "result": "0.973 ± 0.025"}, {"measurement": "NP40-soluble protein abundance", "setting": "concentration: 0.5mM", "result": "0.956 ± 0.033"}]}
{"target": "A0A140TA86|Q5XKP0 (UniProt Q5XKP0)", "values": [{"measurement": "NP40-soluble protein abundance", "setting": "concentration: 0.1mM", "result": "0.966 ± 0.041"}, {"measurement": "NP40-soluble protein abundance", "setting": "concentration: 0.5mM", "result": "0.9583 ± 0.0044"}]}
{"target": "A0A0C4DG21|E7EP65 and related entries (UniProt Q9NYB9)", "values": [{"measurement": "NP40-soluble protein abundance", "setting": "concentration: 0.1mM", "result": "0.974 ± 0.024"}, {"measurement": "NP40-soluble protein abundance", "setting": "concentration: 0.5mM", "result": "0.994 ± 0.042"}]}
{"target": "A0A087WZV8|A0A0G2JN66 (UniProt P01850)", "values": [{"measurement": "NP40-soluble protein abundance", "setting": "concentration: 0.1mM", "result": "1.08 ± 0.042"}, {"measurement": "NP40-soluble protein abundance", "setting": "concentration: 0.5mM", "result": "1.01 ± 0.072"}]}
{"target": "A0A0G2JIW1|P0DMV8 and related entries (UniProt P0DMV9+P0DMV8)", "values": [{"measurement": "NP40-soluble protein abundance", "setting": "concentration: 0.1mM", "result": "1.02 ± 0.043"}, {"measurement": "NP40-soluble protein abundance", "setting": "concentration: 0.5mM", "result": "1.04 ± 0.051"}]}
{"target": "A0A087X0M4|Q9BWU0 (UniProt Q9BWU0)", "values": [{"measurement": "NP40-soluble protein abundance", "setting": "concentration: 0.1mM", "result": "0.971 ± 0.024"}, {"measurement": "NP40-soluble protein abundance", "setting": "concentration: 0.5mM", "result": "0.979 ± 0.013"}]}
{"target": "A0A0A6YY92|P30566 (UniProt P30566)", "values": [{"measurement": "NP40-soluble protein abundance", "setting": "concentration: 0.1mM", "result": "0.995 ± 0.044"}, {"measurement": "NP40-soluble protein abundance", "setting": "concentration: 0.5mM", "result": "0.99 ± 0.055"}]}
{"target": "A0A0B4J2A0|Q9UHJ6 (UniProt Q9UHJ6)", "values": [{"measurement": "NP40-soluble protein abundance", "setting": "concentration: 0.1mM", "result": "1.02 ± 0.029"}, {"measurement": "NP40-soluble protein abundance", "setting": "concentration: 0.5mM", "result": "1.003 ± 0.008"}]}
{"target": "A0A087WY71|Q96CW1 and related entries (UniProt Q96CW1)", "values": [{"measurement": "NP40-soluble protein abundance", "setting": "concentration: 0.1mM", "result": "1.09 ± 0.032"}, {"measurement": "NP40-soluble protein abundance", "setting": "concentration: 0.5mM", "result": "1.03 ± 0.1"}]}
{"target": "A0A087X011|E9PES4 and related entries (UniProt Q9Y496)", "values": [{"measurement": "NP40-soluble protein abundance", "setting": "concentration: 0.1mM", "result": "0.998 ± 0.02"}, {"measurement": "NP40-soluble protein abundance", "setting": "concentration: 0.5mM", "result": "0.9835 ± 0.0065"}]}
{"target": "A0A0C4DG40|Q8NF91 and related entries (UniProt Q8NF91)", "values": [{"measurement": "NP40-soluble protein abundance", "setting": "concentration: 0.1mM", "result": "0.97 ± 0.02"}, {"measurement": "NP40-soluble protein abundance", "setting": "concentration: 0.5mM", "result": "0.951 ± 0.02"}]}
